In PMC7819943, “Rice protein-binding microarrays: a tool to detect cis-acting elements near promoter regions in rice”:
The list shows a part of the results.

biological target: T1, OsSMF1 (Oryza sativa, UniProt Q6ZLB0 1-436); assay: protein-binding microarray (RPBM); PBS, 2% BSA, 51.3 ng/ul salmon testes DNA, 50 uM zinc acetate, 200 nM TF, 25 C, 1 h; high values mean tight binding; conditions: protein: recombinant; tags: N-terminal polyhistidine and DsRed monomer fusion (pET32a); chain copies: 2; label: CyDye5-dUTP incorporated in the synthesized complementary strand; 3' TTTTT single-stranded linker to array surface; dsDNA, one strand shown
T1 sequence: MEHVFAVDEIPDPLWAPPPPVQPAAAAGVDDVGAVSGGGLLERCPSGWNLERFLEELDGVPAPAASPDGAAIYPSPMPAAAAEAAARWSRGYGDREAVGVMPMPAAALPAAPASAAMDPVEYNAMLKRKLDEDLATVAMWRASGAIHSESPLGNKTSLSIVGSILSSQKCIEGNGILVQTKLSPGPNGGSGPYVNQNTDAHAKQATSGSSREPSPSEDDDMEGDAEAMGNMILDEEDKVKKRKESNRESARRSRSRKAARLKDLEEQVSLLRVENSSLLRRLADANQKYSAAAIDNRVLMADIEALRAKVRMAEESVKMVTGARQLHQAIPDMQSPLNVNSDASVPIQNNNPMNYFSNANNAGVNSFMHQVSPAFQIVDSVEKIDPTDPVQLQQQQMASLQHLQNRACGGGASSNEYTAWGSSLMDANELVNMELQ
Procedure, shortened: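 Using Ni–NTA, transcription factors fused N-terminally to polyhistidine and DsRed were purified after expression in E. coli BL21-CodonPlus. These were incubated at 200 nM with a blocked, double-stranded custom Agilent array for 1 h at 25 °C in a buffer containing 50 µM zinc acetate, and the array was washed. The binding signal is per-feature fluorescence intensity (arbitrary units) on an Axon 4000B scanner.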

Sequence	binding signal
GATACAATCCGTGTAGTCTTTGTCATTTCCATATAGAACTCGGAGTCACCTAGTGCAG	3800 fluorescence intensity (a.u.)
GCCCTCCTCGGCGTACCCCTCCCCTGCACCTGCGCCCGCCCGGAGTCACCTAGTGCAG	3140 fluorescence intensity (a.u.)
AACCCTCAATGATGACAATATATCTTACTTAAAGAAAAGGCGGAGTCACCTAGTGCAG	3380 fluorescence intensity (a.u.)
CCGCCGCCGCGGCCGCCGCCGCGCTCACCGGCAGGAGCGACGGAGTCACCTAGTGCAG	3390 fluorescence intensity (a.u.)
CCCACACTGCAAACACCTTAATTAGTACTACTACTAGTCACGGAGTCACCTAGTGCAG	3430 fluorescence intensity (a.u.)
TGTGGGCCCGGAATAGGTGGGACCCACACGTCAGTGAAACCGGAGTCACCTAGTGCAG	6630 fluorescence intensity (a.u.)
AATTTCGAACTTAATTAGCACGTGGATTAATTAGTTGGCACGGAGTCACCTAGTGCAG	5150 fluorescence intensity (a.u.)
TCTGCCACTTTCCGCATGCTGTATCCACGTCACCTCCAATCGGAGTCACCTAGTGCAG	21100 fluorescence intensity (a.u.)
GGCCTGCAGCGGGAGCCGATTGTTCTGTGACGCGTGGAGGCGGAGTCACCTAGTGCAG	3170 fluorescence intensity (a.u.)
AGTTCAGATCTTTCTCTCATTTACAAATAACCTAAGCTGCCGGAGTCACCTAGTGCAG	4080 fluorescence intensity (a.u.)
CAGGTAACCATACTACTGAACAGAACTTTATGACCATTTTCGGAGTCACCTAGTGCAG	3990 fluorescence intensity (a.u.)
TGCAGACCATTTTGTGCGTGCGTGCGTGTGGCTAGCCCGTCGGAGTCACCTAGTGCAG	4470 fluorescence intensity (a.u.)
ACACTTAATCCATGTGATATCCTTAACACTTAATCCATGTCGGAGTCACCTAGTGCAG	3810 fluorescence intensity (a.u.)
GCTATAAATCTGTAGTCTTCTCTCTCATCTTTTATCTTCTCGGAGTCACCTAGTGCAG	19000 fluorescence intensity (a.u.)
GTGGGGCAGGATCAAGGACAAGTATCGGCGGATGGTGCCGCGGAGTCACCTAGTGCAG	23500 fluorescence intensity (a.u.)
AGCTCATGACCAGCGCGCACCGCCTTGTCAGCCTGTGTTTCGGAGTCACCTAGTGCAG	5420 fluorescence intensity (a.u.)
CTTTAACATCCGTCCCAGAAGAATAACACTGCTCGCAAAACGGAGTCACCTAGTGCAG	36100 fluorescence intensity (a.u.)
ACTGGCTCCACACGACGTCAGCGACGGCTGGTTCAGCGAGCGGAGTCACCTAGTGCAG	4300 fluorescence intensity (a.u.)
GGGTCGTCGTCATCGCCGTCTTCACTCTTCACGCCACACTCGGAGTCACCTAGTGCAG	5020 fluorescence intensity (a.u.)
TTCAAACAAGTGAATATCATATATTTTAATAAGCAAACAACGGAGTCACCTAGTGCAG	32300 fluorescence intensity (a.u.)
AGTTGGTGAACTATAAGGTAGATAGATGTAAAAGAGAAACCGGAGTCACCTAGTGCAG	31800 fluorescence intensity (a.u.)

Sequence	binding signal
CGCCCAGGACGTCATGCCGGAGCTGGCCATGGTCACCGCGCGGAGTCACCTAGTGCAG	4070 fluorescence intensity (a.u.)
TTTCAGTTAAGTCGGTGCGGTACAAACAGCTAAGCACGTACGGAGTCACCTAGTGCAG	3220 fluorescence intensity (a.u.)
ACTGAAAAGTTGCGTGTGTATGACAGGTTGATGTGATAGACGGAGTCACCTAGTGCAG	3820 fluorescence intensity (a.u.)
TCTGCAATTTGCACGTGGCACTATGACCAAGTGTGATGAGCGGAGTCACCTAGTGCAG	10600 fluorescence intensity (a.u.)
TATGTTGTAATATTTGCACGTGTGAGCTTGCTTGTTAAGTCGGAGTCACCTAGTGCAG	3980 fluorescence intensity (a.u.)
TTTGCACAAGGTAGTAGTGTGTGGCAGCAAAGGATCCGAGCGGAGTCACCTAGTGCAG	3200 fluorescence intensity (a.u.)
GCTCAGAGTCAGACGCGTCGCCTTGCGTGGCCCAGTTGCCCGGAGTCACCTAGTGCAG	5490 fluorescence intensity (a.u.)
TATTTACGTTATTAGTTTCAGATATATGACTCGACGATCCCGGAGTCACCTAGTGCAG	4750 fluorescence intensity (a.u.)
CAGGTGGGCCCTGCTCTCCCACGTCAGCATCACTCCAAGTCGGAGTCACCTAGTGCAG	14900 fluorescence intensity (a.u.)
TTCTACCTGAGAAGAGAGCCCAGTTCTCCGCTACAATTCCCGGAGTCACCTAGTGCAG	6170 fluorescence intensity (a.u.)
TACGGTGCTACTGCTGTGTCAGTTTGTCTGGTGTTTTCGGCGGAGTCACCTAGTGCAG	3480 fluorescence intensity (a.u.)
GAAGAAAGTGGCGAGTTGTCACCAGCAGTAGCTTCAACGACGGAGTCACCTAGTGCAG	3960 fluorescence intensity (a.u.)
TCCCTTGATCCGATCACGAATGCTTAGGTGGACTTTGTTTCGGAGTCACCTAGTGCAG	4460 fluorescence intensity (a.u.)
TGATGTTACAGTAAACTTTTGATAATTATGGATTAATTAGCGGAGTCACCTAGTGCAG	3670 fluorescence intensity (a.u.)
CCGTCGCGGGGCCCGGGCGTCCGACGTGGCCGACCAGGCGCGGAGTCACCTAGTGCAG	9350 fluorescence intensity (a.u.)
TGGCGTCCAGCACGAACTCCGCCTCCCGCGTCGACGTGTACGGAGTCACCTAGTGCAG	6920 fluorescence intensity (a.u.)
ATTGCCGCCATTCAGGAAGACATCGTCGGATGCGGTGGCACGGAGTCACCTAGTGCAG	4160 fluorescence intensity (a.u.)
TGTGGATAAGGTTGGAGGGTATTTCGGTCACTACGAAAATCGGAGTCACCTAGTGCAG	3190 fluorescence intensity (a.u.)
AAACATGGGCTCGGCCCAAGCCACGTCATACGAGCACGGACGGAGTCACCTAGTGCAG	18100 fluorescence intensity (a.u.)
GGCTAGCTCTCATGTATGATGTCATTGAGAAGATCGACTACGGAGTCACCTAGTGCAG	5340 fluorescence intensity (a.u.)
AATTAAAATGTTCGTACAGTACACGACGATTCCCACCTTGCGGAGTCACCTAGTGCAG	4380 fluorescence intensity (a.u.)

2 records drawn at random from those above:
Sequence	binding signal
TATGTTGTAATATTTGCACGTGTGAGCTTGCTTGTTAAGTCGGAGTCACCTAGTGCAG	3980 fluorescence intensity (a.u.)
GAAGAAAGTGGCGAGTTGTCACCAGCAGTAGCTTCAACGACGGAGTCACCTAGTGCAG	3960 fluorescence intensity (a.u.)

(next part)

Sequence	binding signal
AGCCGCACATCATCTCGCTAACGTCATCCTTTGTGCCGAACGGAGTCACCTAGTGCAG	6700 fluorescence intensity (a.u.)
AAAGAAATAGCAGACTGCTGACTACACTTTATCTGAGCATCGGAGTCACCTAGTGCAG	3810 fluorescence intensity (a.u.)
CGCCATGCTTTGTCCTTGGTGTCACCACACTGTCCCTCCTCGGAGTCACCTAGTGCAG	3600 fluorescence intensity (a.u.)
CCGTTACATTGTTCCAATTTTAATTAAACTTCCAATTTTACGGAGTCACCTAGTGCAG	30600 fluorescence intensity (a.u.)
CGGCGGCGGCGACCGCGGGTAGGGTGGGTGGCGCGGGCCGCGGAGTCACCTAGTGCAG	3640 fluorescence intensity (a.u.)
GGCAAGTTGTCGTTTATTGACCTTGCTGGCAGTGAGCGTGCGGAGTCACCTAGTGCAG	3780 fluorescence intensity (a.u.)
CAGATAGAAGAGAGGAAGCACGCACACACTTGTGAGTTGTCGGAGTCACCTAGTGCAG	3620 fluorescence intensity (a.u.)
GAGGACTTGGAAACGACGCTGACGAGTTTCACCAGGATGACGGAGTCACCTAGTGCAG	3660 fluorescence intensity (a.u.)
TAGGAGTGTTTTCGCTGTGTACACGCCGACGTGGGTCCATCGGAGTCACCTAGTGCAG	3620 fluorescence intensity (a.u.)
CGGTGGGCCCAGCTGTCAGCGAACGTGGGAGTTGGCACAGCGGAGTCACCTAGTGCAG	5000 fluorescence intensity (a.u.)
TGTATGCAGCAATATCCACCGGCCCCACGGAACGGGCGGTCGGAGTCACCTAGTGCAG	22800 fluorescence intensity (a.u.)
AGAACACCGGTCGTTTTGCTCGTGAGCTGTCTCGGGGTAGCGGAGTCACCTAGTGCAG	3150 fluorescence intensity (a.u.)
CTGGCAAGTCCTTCTGCAGTGCCCTTTCAAGTTTCTTTGACGGAGTCACCTAGTGCAG	24300 fluorescence intensity (a.u.)
TGGTGGCTGTGGGTGGATAAAACCGAGGCCCACGCCTGCACGGAGTCACCTAGTGCAG	3260 fluorescence intensity (a.u.)
AGACACATGCCCAGGTTTACCACGTATACTCTTTGAGTTGCGGAGTCACCTAGTGCAG	4220 fluorescence intensity (a.u.)
GGTGGCGTGCTCCCGGTTTTCTTCGGCCGAAACCGAAAGCCGGAGTCACCTAGTGCAG	17400 fluorescence intensity (a.u.)
CTTGGCTACCCTCCACCGGCGTCACCTTCACCGCTGACCTCGGAGTCACCTAGTGCAG	3900 fluorescence intensity (a.u.)
CCTTATTACGTGCCAACTTCGGAGACTTGTACCAGTACTTCGGAGTCACCTAGTGCAG	3210 fluorescence intensity (a.u.)
CTTGAGACAGAACCCGACACTGACATGTAGGGCCCACCTGCGGAGTCACCTAGTGCAG	3820 fluorescence intensity (a.u.)
TGTGCAATGGTACATCATGAACAGTGTTTCGTGTTGAATGCGGAGTCACCTAGTGCAG	4200 fluorescence intensity (a.u.)
ATTTCAGAATCATGACGCATGATATTGACCTCATTGATGACGGAGTCACCTAGTGCAG	7840 fluorescence intensity (a.u.)

Sequence	binding signal
TAGTGACAAAGACACGTGACTTTGACTACAGAGGATCTCTCGGAGTCACCTAGTGCAG	5400 fluorescence intensity (a.u.)
ATTCTCATATGACTGATGTAAGCAATTACTTCGCATTGGCCGGAGTCACCTAGTGCAG	4260 fluorescence intensity (a.u.)
CAGTTGACAAATGACAACCGGCACGTTTGCAACATGCAAGCGGAGTCACCTAGTGCAG	3220 fluorescence intensity (a.u.)
CTGTTGGGGCATGCTTCCTCGCTCCACGCAAGCCCACATCCGGAGTCACCTAGTGCAG	7560 fluorescence intensity (a.u.)
AAATATCTACGTTTAGTTTGTTGTCAAATTTGGTCAACATCGGAGTCACCTAGTGCAG	3320 fluorescence intensity (a.u.)
TTAGAAGTTCGAATCTAGTAATAAGTATTGGCAATAACTCCGGAGTCACCTAGTGCAG	37600 fluorescence intensity (a.u.)
AACTCGATGATGATGTCGCCACGACGCCTTGTATATATTTCGGAGTCACCTAGTGCAG	3200 fluorescence intensity (a.u.)
CGCCTCCGTGGACCCGGTCCACGGGGAGATTACACCTTCACGGAGTCACCTAGTGCAG	57600 fluorescence intensity (a.u.)
AGGGGCGAGTATCATACCGTCTCCGGCTAAGGCTCCGTCACGGAGTCACCTAGTGCAG	17600 fluorescence intensity (a.u.)
ATGCATTGCATGAGCCATGATGGACTCAAAGAGTGAGTTGCGGAGTCACCTAGTGCAG	3340 fluorescence intensity (a.u.)
TAGCAGAGACTAGGGCCTGCCTCCACGCCATGCTCTGCTTCGGAGTCACCTAGTGCAG	3260 fluorescence intensity (a.u.)
ACATTGTGGCTTTGCAATCAGGCGTGACACGGCACGTGCCCGGAGTCACCTAGTGCAG	7650 fluorescence intensity (a.u.)
ACCGCCAAAAGCACACGCACTGGTGACTGGGTAGGTGGTGCGGAGTCACCTAGTGCAG	5450 fluorescence intensity (a.u.)
CACCGCTAACACAGCTAGCGACACACGCCAGCTCTCACGTCGGAGTCACCTAGTGCAG	3570 fluorescence intensity (a.u.)
AGCGATCCCCATAACGGAGGTGCGTGTCCTCCTCCTCCTCCGGAGTCACCTAGTGCAG	34000 fluorescence intensity (a.u.)
TGGTACCTGTGATACCTGGTACCTATGACACCTGGTATCTCGGAGTCACCTAGTGCAG	11500 fluorescence intensity (a.u.)
TCGAAAGCAATCTTGTCATCTCCTGCGTCATGTGACTCCACGGAGTCACCTAGTGCAG	4060 fluorescence intensity (a.u.)
CCGCTCCACTCCACCGGCGCCGTGTTTCCCTTCTCCCTCTCGGAGTCACCTAGTGCAG	4430 fluorescence intensity (a.u.)
TGCTCATTCTCAGCACAAGCAGTAGCTAGCTAGCAACTCTCGGAGTCACCTAGTGCAG	3200 fluorescence intensity (a.u.)
ATCATGAGTTGCTGACGCTTTCCAGATCAATCCCCTTTGTCGGAGTCACCTAGTGCAG	4180 fluorescence intensity (a.u.)
CAAGTTTAGAGACCGGAGTGACACAACTGAATAAGTTGGACGGAGTCACCTAGTGCAG	5740 fluorescence intensity (a.u.)

Some of the entries above, set out differently.
Sequence,binding signal
AACTCGATGATGATGTCGCCACGACGCCTTGTATATATTTCGGAGTCACCTAGTGCAG,3200 fluorescence intensity (a.u.)
CGCCTCCGTGGACCCGGTCCACGGGGAGATTACACCTTCACGGAGTCACCTAGTGCAG,57600 fluorescence intensity (a.u.)
AGGGGCGAGTATCATACCGTCTCCGGCTAAGGCTCCGTCACGGAGTCACCTAGTGCAG,17600 fluorescence intensity (a.u.)
ATGCATTGCATGAGCCATGATGGACTCAAAGAGTGAGTTGCGGAGTCACCTAGTGCAG,3340 fluorescence intensity (a.u.)
TAGCAGAGACTAGGGCCTGCCTCCACGCCATGCTCTGCTTCGGAGTCACCTAGTGCAG,3260 fluorescence intensity (a.u.)
